## Primary screen of a compound library

The values are deposited in ChEMBL (CHEMBL3988442, “University of Dundee, Small-Polar-MMV Screening Library” (2021)).

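Whole-parasite assay of Trypanosoma brucei over 72 hours; the read-out is not stated. Compounds at 30 µM. The record gives no direction; compounds that gave an IC50 in retests scored well above the rest, so higher reads as stronger inhibition. Values scatter widely below zero; nearly all retest evidence comes from the higher of the two concentrations used. Size under these conditions: about 64,000 compounds, about 940 of them at 50% or above in at least one test.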

Values are the deposited “Percent Effect”, in %. The controls that fix the scale are not given in the record; negative values are as filed. The compounds are a random part of those screened.

CN(C)C(=O)Cn1cc(C#N)c(=O)c2cc(Br)ccc21 read -16.66%. Result for [H][C@@]12CN(C(=O)c3cccn3C)C[C@]1([H])C(=O)N(CC)C2 was 34.23%. COc1ccc(Cc2nnc(SC)o2)cc1OC gave 45.86%. Result for O=C(c1cc[nH]n1)N1CCC(c2cc(Nc3ccccn3)n[nH]2)CC1 was -4.993%.

COc1ccc(CNC(=O)NC(C)Cn2cccn2)cc1O (stereo not given) read -5.258%. With CS(=O)(=O)Nc1ccc(-n2c(CCCO)nc3ccccc32)cn1 the screen gave -4.646%. O=C(NC1CCS(=O)(=O)C1)c1sccc1OC(F)F (stereo not given) gave -3.907%. C[S+]([O-])CCNC(=O)N1CCSC(C)(C)C1 (stereo not given) gave -13.38%.

COCCCn1ccc(NC(=O)NCc2cccc(N(C)C)c2)n1 gave -12.89%. With Cc1csc(CCNC(=O)c2ccc(N(C)C)c(F)c2)n1 the screen gave -29.06%. For O=C(Nc1nnc(C2CC2)s1)NC1CCN(Cc2ccccc2)C1 (stereo not given) the result was -16.44%. Result for N#Cc1cccc(N2CCC3(CCC(=O)N(CC4CCCO4)C3)CC2)n1 (stereo not given) was 8.638%.

CCNC(=O)N1CCC2(CC1)CCn1c(-c3cccc(OC)c3)cnc12 gave -38.23%. Result for FC(F)(F)c1cccc(CNc2nccc(C(F)(F)F)n2)c1 was -21.73%. For CCn1ncnc1CN1CCC(CNC(=O)c2ccccc2C#N)C1 (stereo not given) the result was -15.44%. For C[C@@H]1CN(C(=O)CCc2nncn2C)CC[C@@]1(O)C1CCC1 the result was -17.73%.

N#Cc1ccc(N2CCC3(CC2)CC(Oc2cccnc2)CO3)cc1.O=C(O)C(F)(F)F (stereo not given) read 14.21%. With COC(=O)c1cccc(CNC(=O)CCC(F)(F)F)c1 the screen gave -31.93%. Result for [H][C@]12CC[C@]([H])(CN(S(=O)(=O)N(C)CC)C1)N(Cc1cscn1)C2=O was -45.21%. With Cc1ccccc1CN(CCN(C)C)Cc1ccc(C(=O)O)cc1 the screen gave 20.48%.

Cc1[nH]c(-c2ccccc2)nc1C(=O)N1CCC(O)(CO)CC1 read 12.72%. NC(=O)c1cc(C2CCCN(CCOc3cccc(F)c3)C2)n[nH]1 (stereo not given) gave -2.831%. For Cc1cccc(NC2CCN(C(=O)Nc3ccccn3)CC2)n1 the result was 4.899%. With CN(CCn1cnnc1)S(=O)(=O)c1ccc(C(F)(F)F)nc1 the screen gave -27.18%.

For OCC1CCN(c2ccc(NCc3ccsc3)nc2)CC1 the result was -18.88%. With Cc1csc(CN(CC2CCCO2)C(=O)c2ccc(C)nc2C)n1 (stereo not given) the screen gave -9.699%. For Cc1nncn1CCN1C(=O)CC2(CCCC2)CC1=O the result was -30.15%. For CS(=O)(=O)NCC1OCCc2cn(CC3CC3)nc21 (stereo not given) the result was -3.228%.

With O=C(CS(=O)(=O)Cc1cccc(Br)c1)Nc1cn[nH]c1 the screen gave -56.14%. With CC(=O)c1cccc(NC(=O)Cn2cc(I)cn2)c1 the screen gave 13.83%. Result for O=C(O)C(F)(F)F.[H][C@@]12OCCN(CCOCc3ccccc3)[C@@]1([H])CC[C@@H]2OCC was -10.93%. Result for CCCS(=O)(=O)N1CCC2(CN(c3ccsc3)C(=O)CN2C)C1.O=C(O)C(F)(F)F (stereo not given) was -11.48%.

With Cc1ccc(CCC(=O)N2CCCC(c3cc(C(N)=O)[nH]n3)C2)cc1 (stereo not given) the screen gave -11.05%. Result for CSc1ccc(-c2nc(CN3CCC(CN)C3)c(C)o2)cc1 (stereo not given) was 56.38%. For OC(COCc1cccs1)Cn1cc(Cl)cn1 (stereo not given) the result was -15.4%. For O=C1COc2ccc(C(=O)N3CCCC(n4ccnc4)C3)cc2N1 (stereo not given) the result was -15.01%.

CS(=O)(=O)N1CCCCC1c1ccc(Nc2cnccn2)nc1 (stereo not given) gave -19.8%.

Repeated from the top, 4 entries:

SMILES	Percent Effect
CN(C)C(=O)Cn1cc(C#N)c(=O)c2cc(Br)ccc21	-16.66
[H][C@@]12CN(C(=O)c3cccn3C)C[C@]1([H])C(=O)N(CC)C2	34.23
COc1ccc(Cc2nnc(SC)o2)cc1OC	45.86
O=C(c1cc[nH]n1)N1CCC(c2cc(Nc3ccccn3)n[nH]2)CC1	-4.993